Binding data for seven molecules are collected here from paper PMC9478127.

The chains behind the UniProt entries cited, without tags or fusion partners.
UniProt O95785: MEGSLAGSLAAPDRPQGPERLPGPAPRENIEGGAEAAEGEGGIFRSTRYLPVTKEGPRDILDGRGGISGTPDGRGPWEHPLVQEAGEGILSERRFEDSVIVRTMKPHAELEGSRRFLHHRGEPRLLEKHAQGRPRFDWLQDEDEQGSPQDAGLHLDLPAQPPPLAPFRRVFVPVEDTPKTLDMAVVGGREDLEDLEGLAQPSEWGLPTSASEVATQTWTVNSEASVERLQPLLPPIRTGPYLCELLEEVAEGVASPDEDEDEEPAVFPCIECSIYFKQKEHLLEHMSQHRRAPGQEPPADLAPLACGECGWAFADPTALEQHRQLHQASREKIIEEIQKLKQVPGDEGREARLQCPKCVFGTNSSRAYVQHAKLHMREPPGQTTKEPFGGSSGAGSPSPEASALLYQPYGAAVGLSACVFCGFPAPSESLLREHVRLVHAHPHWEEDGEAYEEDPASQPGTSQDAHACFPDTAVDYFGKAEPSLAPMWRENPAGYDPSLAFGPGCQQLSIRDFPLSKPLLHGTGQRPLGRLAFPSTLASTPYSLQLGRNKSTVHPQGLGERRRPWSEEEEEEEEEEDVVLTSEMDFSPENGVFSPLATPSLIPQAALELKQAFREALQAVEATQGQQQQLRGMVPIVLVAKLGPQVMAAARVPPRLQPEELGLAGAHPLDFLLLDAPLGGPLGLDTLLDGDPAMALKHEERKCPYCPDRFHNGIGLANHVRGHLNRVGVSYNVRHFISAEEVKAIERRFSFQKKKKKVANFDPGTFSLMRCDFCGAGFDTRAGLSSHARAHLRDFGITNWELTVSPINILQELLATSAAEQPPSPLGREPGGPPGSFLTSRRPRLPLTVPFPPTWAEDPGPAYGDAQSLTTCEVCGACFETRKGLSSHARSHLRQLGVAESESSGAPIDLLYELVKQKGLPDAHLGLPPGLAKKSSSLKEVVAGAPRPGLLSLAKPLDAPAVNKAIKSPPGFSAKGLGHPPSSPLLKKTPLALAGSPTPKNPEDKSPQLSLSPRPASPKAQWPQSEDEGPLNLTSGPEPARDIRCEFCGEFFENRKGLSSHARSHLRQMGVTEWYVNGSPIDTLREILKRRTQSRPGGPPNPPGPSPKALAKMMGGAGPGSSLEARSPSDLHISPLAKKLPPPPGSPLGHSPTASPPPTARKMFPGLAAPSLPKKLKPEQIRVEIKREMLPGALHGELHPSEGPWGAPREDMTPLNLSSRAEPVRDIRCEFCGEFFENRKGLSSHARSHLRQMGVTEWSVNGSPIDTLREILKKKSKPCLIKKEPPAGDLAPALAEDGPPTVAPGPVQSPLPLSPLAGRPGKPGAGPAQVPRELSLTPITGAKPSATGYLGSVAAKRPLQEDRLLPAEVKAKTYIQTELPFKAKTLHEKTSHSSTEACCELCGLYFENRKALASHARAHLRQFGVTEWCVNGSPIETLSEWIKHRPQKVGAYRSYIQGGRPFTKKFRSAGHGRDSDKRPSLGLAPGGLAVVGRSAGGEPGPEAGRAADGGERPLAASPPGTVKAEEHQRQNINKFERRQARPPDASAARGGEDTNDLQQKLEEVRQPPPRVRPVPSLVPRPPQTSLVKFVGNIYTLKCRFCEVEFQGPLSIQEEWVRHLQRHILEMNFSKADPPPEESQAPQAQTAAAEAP

Results are given in words; binding and its absence hold for the method and conditions named. Binding seen in cells or lysates may run through a third protein. Some results given as binding are weak or reduced against the parent protein; the word gives no strength. For some assays here: Sequences can lack the tags named with a protein.

For one assay, the target named is T1, Flag-PARP3^WT (UniProt Q9Y6F1).
T1 sequence: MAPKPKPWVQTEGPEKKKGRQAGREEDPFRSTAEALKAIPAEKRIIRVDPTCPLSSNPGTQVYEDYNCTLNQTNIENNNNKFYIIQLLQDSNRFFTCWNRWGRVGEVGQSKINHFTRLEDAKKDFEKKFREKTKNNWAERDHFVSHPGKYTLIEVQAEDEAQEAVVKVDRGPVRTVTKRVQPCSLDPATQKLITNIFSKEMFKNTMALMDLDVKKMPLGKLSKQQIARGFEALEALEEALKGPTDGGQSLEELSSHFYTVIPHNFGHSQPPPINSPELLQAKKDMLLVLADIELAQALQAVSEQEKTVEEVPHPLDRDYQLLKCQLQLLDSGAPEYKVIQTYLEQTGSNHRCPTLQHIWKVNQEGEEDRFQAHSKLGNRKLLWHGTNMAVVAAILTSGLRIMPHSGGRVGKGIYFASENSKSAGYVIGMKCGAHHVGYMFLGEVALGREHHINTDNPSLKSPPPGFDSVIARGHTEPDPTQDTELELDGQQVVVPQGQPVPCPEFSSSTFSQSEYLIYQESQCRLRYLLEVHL
The experiment in a line: co-IP; anti-Flag M2 agarose on RIPA whole cell lysates of PARP3^-/-3 LN229 cells stably expressing Flag, Flag-PARP3^WT or Flag-PARP3^HE; lysates pretreated with DNase I; 4 h at 4 °C; washes with 250 and 150 mM NaCl; blots for G9a, GLP1, Wiz.

Another assay has as its target T2, EGFP-PARP3 (UniProt Q9Y6F1).
T2 sequence: T1 sequence
The experiment in a line: co-IP; EGFP-PARP3 or EGFP immunoprecipitates from HEK cells; blots for G9a and Wiz (Sup. Fig. 2a).

In assay [1] the target is EGFP-G9a (UniProt Q96KQ7). The experiment in a line: co-IP; EGFP-G9a or EGFP transfected into WT or PARP3^-/-3 LN229 cells; GFP-binding agarose beads (Chromotek); DNase I-treated RIPA lysates; blots for Wiz and GLP1.
The target of assay [2] is EGFP-G9a (UniProt Q96KQ7). The assay is described as follows: co-IP; reciprocal: EGFP-G9a or EGFP as bait, transfected into PARP3^-/-3-Flag-PARP3^WT LN229 cells; GFP-binding agarose beads (Chromotek); DNase I-treated RIPA lysates (Sup. Fig. 2b).
A further assay deals with T3, EGFP-G9a, Q96KQ7.
T3 chain: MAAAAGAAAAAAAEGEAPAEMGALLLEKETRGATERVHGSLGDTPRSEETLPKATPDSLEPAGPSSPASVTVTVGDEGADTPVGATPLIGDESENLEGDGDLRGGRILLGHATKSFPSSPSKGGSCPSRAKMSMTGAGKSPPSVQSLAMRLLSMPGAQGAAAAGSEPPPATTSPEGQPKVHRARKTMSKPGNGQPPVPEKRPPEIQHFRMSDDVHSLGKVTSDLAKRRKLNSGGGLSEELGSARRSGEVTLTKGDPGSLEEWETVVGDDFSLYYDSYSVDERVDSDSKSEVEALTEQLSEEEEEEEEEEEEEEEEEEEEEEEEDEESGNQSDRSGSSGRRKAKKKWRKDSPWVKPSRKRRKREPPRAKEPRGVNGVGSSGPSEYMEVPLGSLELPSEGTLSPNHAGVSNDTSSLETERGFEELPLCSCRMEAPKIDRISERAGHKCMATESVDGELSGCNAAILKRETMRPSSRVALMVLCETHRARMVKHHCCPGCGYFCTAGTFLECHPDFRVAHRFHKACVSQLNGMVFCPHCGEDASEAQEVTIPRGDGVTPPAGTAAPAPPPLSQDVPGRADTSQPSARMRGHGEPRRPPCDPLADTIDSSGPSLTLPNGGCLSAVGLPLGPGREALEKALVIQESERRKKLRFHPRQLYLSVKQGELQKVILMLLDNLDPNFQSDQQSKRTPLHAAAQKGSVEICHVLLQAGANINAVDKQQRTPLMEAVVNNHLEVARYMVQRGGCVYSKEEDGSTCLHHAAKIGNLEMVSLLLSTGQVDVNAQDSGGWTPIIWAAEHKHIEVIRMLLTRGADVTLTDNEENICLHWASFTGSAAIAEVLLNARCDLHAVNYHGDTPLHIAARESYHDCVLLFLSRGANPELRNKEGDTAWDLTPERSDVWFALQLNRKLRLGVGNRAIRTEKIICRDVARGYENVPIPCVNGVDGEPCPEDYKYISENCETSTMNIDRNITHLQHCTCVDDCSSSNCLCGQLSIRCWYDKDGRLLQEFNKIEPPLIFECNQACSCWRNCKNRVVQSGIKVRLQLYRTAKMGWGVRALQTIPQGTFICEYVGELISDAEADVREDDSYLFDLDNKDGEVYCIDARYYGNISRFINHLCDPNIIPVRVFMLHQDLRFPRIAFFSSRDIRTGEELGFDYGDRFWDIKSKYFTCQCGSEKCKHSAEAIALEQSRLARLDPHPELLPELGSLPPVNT
The experiment in a line: co-IP; EGFP-G9a or EGFP transfected into WT or PARP3^-/-3 LN229 cells; GFP-binding agarose beads (Chromotek); DNase I-treated RIPA lysates; blots for Wiz and GLP1. Conditions: remark: other sources report otherwise.

Consider “G9a (from UniProt Q96KQ7 1-1210) (enzyme)”, for which the binding entry in the assay with Flag-PARP3^WT is “binds”. In the case of “G9a (in HEK cells) (from UniProt Q96KQ7 1-1210) (enzyme)”, in the assay with EGFP-PARP3, the binding entry is “binds”. With “GLP1 (from UniProt Q9H9B1 1-1298) (enzyme)”, the binding entry with Flag-PARP3^WT is on record as “binds”. As to “Widely Interspaced Zinc Finger (WIZ) (from UniProt O95785 1-1651)”, the binding result with EGFP-G9a [1] and in the assay with Flag-PARP3^WT was “binds” each time. In the case of “Wiz (in HEK cells) (from UniProt O95785 1-1651)”, the binding entry in the assay with EGFP-PARP3 was “binds”.

B1: Flag-PARP3^WT (enzyme, UniProt Q9Y6F1 1-533)
chain: T1 sequence
For B1, the binding entry in the assay with EGFP-G9a [2] was “binds”.

B2: GLP1, Q9H9B1 1-1298 (enzyme)
chain: MAAADAEAVPARGEPQQDCCVKTELLGEETPMAADEGSAEKQAGEAHMAADGETNGSCENSDASSHANAAKHTQDSARVNPQDGTNTLTRIAENGVSERDSEAAKQNHVTADDFVQTSVIGSNGYILNKPALQAQPLRTTSTLASSLPGHAAKTLPGGAGKGRTPSAFPQTPAAPPATLGEGSADTEDRKLPAPGADVKVHRARKTMPKSVVGLHAASKDPREVREARDHKEPKEEINKNISDFGRQQLLPPFPSLHQSLPQNQCYMATTKSQTACLPFVLAAAVSRKKKRRMGTYSLVPKKKTKVLKQRTVIEMFKSITHSTVGSKGEKDLGASSLHVNGESLEMDSDEDDSEELEEDDGHGAEQAAAFPTEDSRTSKESMSEADRAQKMDGESEEEQESVDTGEEEEGGDESDLSSESSIKKKFLKRKGKTDSPWIKPARKRRRRSRKKPSGALGSESYKSSAGSAEQTAPGDSTGYMEVSLDSLDLRVKGILSSQAEGLANGPDVLETDGLQEVPLCSCRMETPKSREITTLANNQCMATESVDHELGRCTNSVVKYELMRPSNKAPLLVLCEDHRGRMVKHQCCPGCGYFCTAGNFMECQPESSISHRFHKDCASRVNNASYCPHCGEESSKAKEVTIAKADTTSTVTPVPGQEKGSALEGRADTTTGSAAGPPLSEDDKLQGAASHVPEGFDPTGPAGLGRPTPGLSQGPGKETLESALIALDSEKPKKLRFHPKQLYFSARQGELQKVLLMLVDGIDPNFKMEHQNKRSPLHAAAEAGHVDICHMLVQAGANIDTCSEDQRTPLMEAAENNHLEAVKYLIKAGALVDPKDAEGSTCLHLAAKKGHYEVVQYLLSNGQMDVNCQDDGGWTPMIWATEYKHVDLVKLLLSKGSDINIRDNEENICLHWAAFSGCVDIAEILLAAKCDLHAVNIHGDSPLHIAARENRYDCVVLFLSRDSDVTLKNKEGETPLQCASLNSQVWSALQMSKALQDSAPDRPSPVERIVSRDIARGYERIPIPCVNAVDSEPCPSNYKYVSQNCVTSPMNIDRNITHLQYCVCIDDCSSSNCMCGQLSMRCWYDKDGRLLPEFNMAEPPLIFECNHACSCWRNCRNRVVQNGLRARLQLYRTRDMGWGVRSLQDIPPGTFVCEYVGELISDSEADVREEDSYLFDLDNKDGEVYCIDARFYGNVSRFINHHCEPNLVPVRVFMAHQDLRFPRIAFFSTRLIEAGEQLGFDYGERFWDIKGKLFSCRCGSPKCRHSSAALAQRQASAAQEAQEDGLPDTSSAAAADPL
With B2, in the assay with EGFP-G9a, Q96KQ7, the binding result is “binds”.
